Assay results: article PMC11622535
No constants are given. Whether binding was seen depends on the method and setting. Binding seen in cells or lysates may run through a third protein. Some entries that bind do so weakly or less than the wild type. Sequences can lack the tags named with a protein.

T1: CLuc-CesA4 (Arabidopsis cellulose synthase A4) (Arabidopsis thaliana) (UniProt Q84JA6)
T1 sequence: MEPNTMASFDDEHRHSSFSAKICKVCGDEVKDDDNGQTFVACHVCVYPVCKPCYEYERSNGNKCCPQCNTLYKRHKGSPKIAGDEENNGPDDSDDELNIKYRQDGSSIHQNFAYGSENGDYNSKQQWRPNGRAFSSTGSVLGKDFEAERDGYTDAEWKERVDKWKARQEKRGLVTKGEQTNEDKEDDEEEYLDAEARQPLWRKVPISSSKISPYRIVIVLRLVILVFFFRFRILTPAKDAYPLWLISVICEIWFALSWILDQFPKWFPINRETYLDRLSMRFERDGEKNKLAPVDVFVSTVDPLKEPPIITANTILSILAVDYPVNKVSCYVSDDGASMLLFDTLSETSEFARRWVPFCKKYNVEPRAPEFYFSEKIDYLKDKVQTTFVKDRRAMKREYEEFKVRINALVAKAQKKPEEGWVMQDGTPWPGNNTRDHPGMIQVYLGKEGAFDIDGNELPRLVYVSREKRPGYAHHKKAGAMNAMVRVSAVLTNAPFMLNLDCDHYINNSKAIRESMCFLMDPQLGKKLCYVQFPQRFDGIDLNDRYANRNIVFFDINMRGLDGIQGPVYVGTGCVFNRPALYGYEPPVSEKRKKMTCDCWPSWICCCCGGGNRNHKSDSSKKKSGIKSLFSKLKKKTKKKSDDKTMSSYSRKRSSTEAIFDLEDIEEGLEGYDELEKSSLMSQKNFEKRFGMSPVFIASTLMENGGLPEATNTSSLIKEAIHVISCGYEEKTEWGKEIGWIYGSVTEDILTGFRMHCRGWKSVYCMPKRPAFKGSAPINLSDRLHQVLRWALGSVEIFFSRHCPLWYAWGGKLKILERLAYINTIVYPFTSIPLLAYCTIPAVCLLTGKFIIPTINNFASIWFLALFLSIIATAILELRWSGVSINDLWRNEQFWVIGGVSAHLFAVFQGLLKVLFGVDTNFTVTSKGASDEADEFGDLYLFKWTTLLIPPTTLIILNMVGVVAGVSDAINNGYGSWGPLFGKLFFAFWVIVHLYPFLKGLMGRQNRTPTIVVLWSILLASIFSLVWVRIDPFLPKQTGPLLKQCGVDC

B1: … STRIP MEMBRANE DOMAIN-LIKE1 (CASPL1), Arabidopsis, split luciferase construct (protein, UniProt Q9FE29 1-193)
chain: MGYETKSTLDTERSTAPGTGTTTKSCSMTQVVLRFVLFAATLTSIVVMVTSKQTKNIFLPGTPIRIPAAEFTNSPALIYFVVALSVACFYSIVSTFVTVSAFKKHSCSAVLLLNLAIMDAVMVGIVASATGAGGGVAYLGLKGNKEVRWGKICHIYDKFCRHVGGAIAVSLFASVVLLLLSIISVLSLYKKIR
B2: NLuc-CASPL2 (Arabidopsis) (protein, UniProt Q9SQU2 1-199)
chain: MASTENPDPETGKSEPIPASATPPPSSAASFLDCRKIDIITRVLLFSATLTALIVMVTSDQTEMTQLPGVSSPAPVSAEFNDSPAFIYFVVALVVASFYALISTLVSISLLLKPEFTAQFSIYLASLDMVMLGILASATGTAGGVAYIALKGNEEVGWNKICNVYDKFCRYIATSLALSLFASLLLLVLSIWSALSKRT

Target: T1, CLuc-CesA4 (Arabidopsis cellulose synthase A4) (Arabidopsis thaliana)
Assay: split reporter; split luciferase complementation; NLuc and CLuc fusions co-expressed in N. benthamiana leaves, luciferase activity imaged 48 h later

Row | binding | Binder
1 | binds | B1
2 | binds | B2
